In publication PMC3197150:
Results are given in words; binding and its absence hold for the method and conditions named. Binding seen in cells or lysates may run through a third protein. Here binding means that the protein was enriched with, or labelled near, the bait; the list need not be complete.

Amino acid sequences for entries named in this document (tags omitted).
UniProt P38873: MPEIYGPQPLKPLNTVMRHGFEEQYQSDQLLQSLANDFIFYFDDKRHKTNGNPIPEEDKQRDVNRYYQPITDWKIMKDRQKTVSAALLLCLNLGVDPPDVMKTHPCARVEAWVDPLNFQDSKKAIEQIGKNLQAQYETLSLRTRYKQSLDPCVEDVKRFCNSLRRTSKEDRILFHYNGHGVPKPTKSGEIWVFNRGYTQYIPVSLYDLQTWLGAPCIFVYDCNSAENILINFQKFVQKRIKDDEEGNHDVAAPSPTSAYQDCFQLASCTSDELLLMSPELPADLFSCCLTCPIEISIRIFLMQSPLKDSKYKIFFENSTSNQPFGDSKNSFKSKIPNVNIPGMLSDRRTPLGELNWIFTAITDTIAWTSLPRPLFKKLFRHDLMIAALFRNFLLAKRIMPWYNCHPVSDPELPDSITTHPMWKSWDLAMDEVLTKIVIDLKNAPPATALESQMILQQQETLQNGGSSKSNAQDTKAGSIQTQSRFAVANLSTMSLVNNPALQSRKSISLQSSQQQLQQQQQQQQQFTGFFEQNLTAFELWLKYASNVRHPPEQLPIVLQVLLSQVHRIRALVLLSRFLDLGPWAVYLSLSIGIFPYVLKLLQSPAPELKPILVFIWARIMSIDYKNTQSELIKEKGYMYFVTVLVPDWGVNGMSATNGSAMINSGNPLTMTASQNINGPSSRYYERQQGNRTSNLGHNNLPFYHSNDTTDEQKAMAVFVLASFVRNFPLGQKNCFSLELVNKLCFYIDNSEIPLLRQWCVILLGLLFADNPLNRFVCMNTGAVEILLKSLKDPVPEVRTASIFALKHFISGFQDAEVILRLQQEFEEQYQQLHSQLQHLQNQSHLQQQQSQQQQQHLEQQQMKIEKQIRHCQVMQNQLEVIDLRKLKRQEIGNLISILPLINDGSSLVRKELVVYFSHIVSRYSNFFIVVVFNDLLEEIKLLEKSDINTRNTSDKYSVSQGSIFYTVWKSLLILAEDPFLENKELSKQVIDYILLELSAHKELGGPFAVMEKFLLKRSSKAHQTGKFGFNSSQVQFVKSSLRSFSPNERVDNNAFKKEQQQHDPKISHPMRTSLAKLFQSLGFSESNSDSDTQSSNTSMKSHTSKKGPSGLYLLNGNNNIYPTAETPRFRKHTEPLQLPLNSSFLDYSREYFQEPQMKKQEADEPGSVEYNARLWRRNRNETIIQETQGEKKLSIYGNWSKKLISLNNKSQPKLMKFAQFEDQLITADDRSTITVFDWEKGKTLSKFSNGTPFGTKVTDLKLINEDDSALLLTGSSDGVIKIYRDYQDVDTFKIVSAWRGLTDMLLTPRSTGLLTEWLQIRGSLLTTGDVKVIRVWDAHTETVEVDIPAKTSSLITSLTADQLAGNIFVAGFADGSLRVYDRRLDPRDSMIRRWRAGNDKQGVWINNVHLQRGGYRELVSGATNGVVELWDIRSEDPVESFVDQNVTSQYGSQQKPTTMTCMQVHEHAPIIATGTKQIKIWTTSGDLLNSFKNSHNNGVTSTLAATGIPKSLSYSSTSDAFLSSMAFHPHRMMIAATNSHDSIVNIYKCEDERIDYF

Target: Kog1p, C-terminally FLAG-tagged (KOG1-FLAG) (S. cerevisiae) (UniProt P38873)
Assay: affinity purification with mass spectrometry; KOG1-flag captured from yeast lysate (batch glucose or glucose-limited chemostat cultures) on flag antibody conjugated to magnetic protein G beads, not more than 45 min at 4°C; lysis buffer 50 mM HEPES pH 7.5, 150 mM KCl, 0.5% Tween 20; 5 short washes with added 200 mM NaCl; bands cut from SDS gels, nano HPLC/MS/MS

binding: binds
B1: Lsp1p (protein, UniProt Q12230 1-341)
chain: MHRTYSLRNQRAPTAAELQAPPPPPSSTKSKFFGKASIASSFRKNAAGNFGPELARKLSQLVKTEKGVLRAMEVVASERREAAKQLSLWGADNDDDVSDVTDKLGVLIYELGELQDQFIDKYDQYRVTLKSIRNIEASVQPSRDRKEKITDEIAHLKYKDPQSTKIPVLEQELVRAEAESLVAEAQLSNITREKLKAAYSYMFDSLRELSEKFALIAGYGKALLELLDDSPVTPGEARPAYDGYEASRQIIMDAESALESWTLDMAAVKPTLSFHQTVDDVYEDEDGEEEEEPEIQNGDIPGQVVEEEEVEWTTEVPVDDEAHEADHHVSQNGHTSGSENI
